From patent US20250051409A1, “MODULATORS OF PHOSPHATIDYLSERlNE DECARBOXYLASE AND USE THEREOF” (THE NATIONAL INSTITUTE FOR BIOTECHNOLOGY IN THE NEGEV LTD., priority 2021, published 2025)
Results are given in words; binding and its absence hold for the method and conditions named. In cells and extracts the contact can be indirect. Some binding calls cover weakened binding; strength is not graded here.

How the values were obtained:
[1] = target: T1, PSD, endogenous, in A549 cells (human) (UniProt B4DPS3); experiment: in situ proximity ligation assay in A549 cells
T1 sequence: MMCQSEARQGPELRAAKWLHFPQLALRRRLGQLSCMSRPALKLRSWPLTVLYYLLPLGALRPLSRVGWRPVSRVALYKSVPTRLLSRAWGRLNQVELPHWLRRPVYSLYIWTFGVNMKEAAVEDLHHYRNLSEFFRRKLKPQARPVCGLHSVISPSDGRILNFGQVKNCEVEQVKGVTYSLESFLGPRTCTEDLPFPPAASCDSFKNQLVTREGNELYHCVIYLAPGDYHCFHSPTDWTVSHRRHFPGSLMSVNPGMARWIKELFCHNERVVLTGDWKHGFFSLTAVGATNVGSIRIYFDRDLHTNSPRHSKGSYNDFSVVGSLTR

[2] = target: T1, PSD, endogenous, in A549 cells (human); experiment: in situ proximity ligation assay in A549 cells (figure legend)

- binding [1]: binds
- binding [2]: binds
B1: SMAC/Diablo, endogenous, in A549 cells and A549 xenograft tumor sections (protein, human, UniProt Q9NR28 56-239, looked up)
chain: AVPIAQKSEPHSLSSEALMRRAVSLVTDSTSTFLSQTTYALIEAITEYTKAVYTLTSLYRQYTSLLGKMNSEEEDEVWQVIIGARAEMTSKHQEYLKLETTWMTAVGLSEMAAEAAYQTGADQASITARNHIQLVKLQVEEVHQLSRKAETKLAEAQIEELRQKTQEEGEERAESEQEAYLRED
